Test results taken from the supplement of paper PMC3334620.
Over roughly 33,000 sequences, “E-score (-0.5 to 0.5)” has its median near -0.016; the highest 2% begin near 0.3. Some of the results follow.

Molecular target: T1, Yer184c (UniProt P39961)
T1 sequence: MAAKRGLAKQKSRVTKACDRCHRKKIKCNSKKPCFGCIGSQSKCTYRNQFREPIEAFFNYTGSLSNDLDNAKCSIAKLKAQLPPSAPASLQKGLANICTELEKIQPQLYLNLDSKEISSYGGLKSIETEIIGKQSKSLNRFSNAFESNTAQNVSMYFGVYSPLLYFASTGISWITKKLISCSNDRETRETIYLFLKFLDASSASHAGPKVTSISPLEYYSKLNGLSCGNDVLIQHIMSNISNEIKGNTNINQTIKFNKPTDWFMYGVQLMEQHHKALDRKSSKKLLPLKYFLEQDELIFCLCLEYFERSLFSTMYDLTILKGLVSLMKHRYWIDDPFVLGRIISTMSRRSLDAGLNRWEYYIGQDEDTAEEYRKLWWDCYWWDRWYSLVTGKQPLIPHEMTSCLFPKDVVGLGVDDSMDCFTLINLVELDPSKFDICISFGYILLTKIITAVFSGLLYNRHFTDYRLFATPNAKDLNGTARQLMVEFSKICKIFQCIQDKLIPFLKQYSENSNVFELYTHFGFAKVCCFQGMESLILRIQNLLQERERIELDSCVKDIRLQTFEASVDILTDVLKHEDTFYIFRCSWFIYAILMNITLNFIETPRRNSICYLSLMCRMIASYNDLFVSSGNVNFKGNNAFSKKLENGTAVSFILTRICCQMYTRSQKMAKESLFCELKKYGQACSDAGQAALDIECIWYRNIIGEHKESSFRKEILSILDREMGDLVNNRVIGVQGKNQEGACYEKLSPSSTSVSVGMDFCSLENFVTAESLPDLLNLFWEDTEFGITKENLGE
Assay: PBM E-score (8-mer binding enrichment) (E-score (-0.5 to 0.5)); higher = stronger / more preferred TF binding
Settings: protein concentration: 100 nM; construct: GST-full length
Procedure: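 Universal 'all 10-mer' protein binding microarrays (Agilent AMADID 015681) probed with GST-tagged S. cerevisiae TFs (full-length or DBD) made by in vitro transcription/translation (PURExpress), about 100-200 nM. Bound TF was detected with fluorescent anti-GST. Each ungapped 8-mer (which stands for itself and its reverse complement) is scored by the PBM enrichment score (E-score), a modified Wilcoxon-Mann-Whitney statistic from -0.5 to +0.5, computed with the Universal PBM Analysis Suite. Scale: above 0.35 generally sequence-specific binding.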

Sequence	PBM E-score
GGCTGAGA	0.0954
AAAAACAA	0.243
CGTCCTCA	-0.168
GACAACTC	0.0832
ACCCCCTC	-0.376
CCATGGTC	-0.223
ATGCAGAG	-0.127
ATGGCGAA	0.0458
CCCCCGGC	0.0145
ATATGGAG	0.0502
GATCCCGA	0.125
GTCCATCA	-0.00208
GTAAGGCA	-0.206
AGGTCCCG	0.104
CACGGCTG	-0.0869
GTACCGAA	0.227
CGCACCAA	-0.0563
ACGAATTC	0.113
GGGATCGA	-0.107
ACCGTACC	-0.158
CTGGGAGA	-0.185
CAGCCCCC	-0.341
AGCTGGGG	-0.201
CCGCTCAA	-0.0707
ATCAGCGC	0.144

Sequence	PBM E-score
GCCTCCGA	-0.0578
AGACACTG	-0.148
CTGCATCA	-0.108
AAAGGGGT	-0.251
CCTACTTC	-0.0325
AACAACGG	0.175
ATATACAC	0.0215
CTAAATAG	0.0848
GATCGGGA	0.00096
AGTCAATG	-0.217
AGGGGAAG	-0.327
CCTGTGTC	-0.191
CGTAGTAC	-0.0796
CAGGTGGC	-0.248
ATAGTTGC	0.0557
ACTTGAAT	0.103
ACCAGCCG	0.194
TACAGAAA	0.244
CGTAGTCA	-0.118
CGACCTCC	0.0181
CCAGTTCA	0.0266
GAGGATAC	-0.0622
CCTCAGTA	-0.0582
AATCATTA	-0.00277
CAAGACTC	-0.0566

Sequence	PBM E-score
CGGCACCC	0.048
CCGGTCAA	0.214
CATCGCGA	0.0727
GGAGGAAC	0.122
CGGTCAAA	0.222
ATAAGGCG	0.0307
AGCTCAAA	0.235
CGACGTGA	-0.0585
AGGCTTGA	-0.108
ATCTCAAG	0.0203
TTACGAAA	0.212
AAGCCATT	0.118
AACTATTG	0.0686
AGTAACCC	-0.13
CCCAAAGC	-0.161
CCTCTCCG	-0.0361
AGTGACAA	-0.091
AGTAGGCA	0.049
TCACGACA	0.0142
ACGACTCG	-0.0983
CTCGGGTC	0.195
AGGAGGCC	-0.311
GAATATAA	0.085
CGGTAATA	0.234
ATAGCTTC	-0.00863

Sequence	PBM E-score
GATACTAC	0.0958
ATCTGACA	0.0044
AGCTCTCG	-0.0555
CCATGTAG	-0.139
AATGCCCT	-0.213
AAGAAAGA	0.0749
CTAGAAAC	-0.0327
GGTGCCGA	0.266
ACGGTCGG	0.129
TGATCGCA	-0.0623
AGATGAGG	-0.245
AGGAGTGC	-0.0807
GAAACCTC	-0.0878
CGTATCTA	0.0415
CAGGTAAC	-0.0858
ACAGAAAC	0.156
CCCTCAAC	-0.195
CGATATCG	0.174
ATCCTGTG	-0.14
GATAGACA	-0.0833
CCAGTCGG	-0.0574
ATGGGCGG	-0.0343
AATAATTA	0.299
ATTAGTAC	-0.0973
AAGTATGG	-0.024

Part of the list above in a different format:

| Sequence | PBM E-score |
| --- | --- |
| CACGGCTG | -0.0869 |
| CGTAGTAC | -0.0796 |
| TCACGACA | 0.0142 |
| ATAGCTTC | -0.00863 |
| CGTATCTA | 0.0415 |
| GATAGACA | -0.0833 |

Continuation.

Sequence	PBM E-score
CTAAGATC	0.0575
CCCAATAG	-0.222
AGCGTTTC	-0.0391
GGTAGGTA	-0.127
GCGTCCGA	0.0443
CCACATTC	-0.187
GCAGATCC	-0.0395
AGGGGGCC	-0.305
CATTAGCA	-0.0101
TGACCTAA	0.0529
AGGTGACT	-0.0736
CTTTCCGC	0.187
ATTCCAAC	0.0142
GCCCGGCC	0.242
AAACATTC	-0.11
GGCGGATA	0.0758
CGTGCGTA	0.0195
GCCAACCA	-0.155
AGATTAGG	-0.068
AGCCGGAA	0.423
ACGTAGCA	-0.116
CGACGACC	-0.0427
AAGGTTAA	0.0692
CGCCTTCC	-0.121
AGCCTTTG	-0.231

Sequence	PBM E-score
AACGGAAT	0.365
ACAGCCGA	0.0776
CGAGCACA	0.205
GAATGTAA	0.137
CGCGCTAA	0.162
TAATAACA	0.108
GCCATGTA	-0.174
ACGATCCA	-0.0627
CAGTAATC	-0.193
AGACAAAG	0.0298
AACTTTAT	0.129
ATTTTACG	0.214
CGAATGAG	0.199
ACTGACAT	0.0267
CCTCTAAC	-0.0421
GGCTAAAA	0.00039
AGACGAGA	-0.0292
ATAGATCC	0.0533
GCAATGCC	-0.00979
CCACGTAA	-0.153
ACCGGATC	0.229
ATATTCAA	0.207
GGACAAGA	0.0367
CCTAAGAA	0.0491
GTCCCCCA	-0.319

Sequence	PBM E-score
CCACTCCG	0.0662
GTATTGGA	-0.0773
GATTGAGA	0.192
AAGGTTGG	-0.24
CTTAGTCA	-0.0786
AAGCTACG	-0.0572
AACGATAC	-0.00121
AATTAGAT	0.185
GCATCGCA	-0.28
GCCGAAAC	0.34
GATAGTCC	-0.078
TAGTTTAA	0.15
CATGCATG	-0.267
AGTGGCCA	-0.185
AACTCATT	-0.00667
CTAAGTAG	-0.0328
AGTACCGG	0.19
AGAATACC	0.0834
GACCGGGC	0.149
GAGGTCGC	-0.165
CGAGACTC	-0.145
GCGTAGCA	-0.0754
TAACCCTA	-0.181
ACCGCCGT	0.031
GCTCCCCA	-0.44

Sequence	PBM E-score
CTTGGGCA	0.0339
ACCCTGCA	-0.0756
ATGGCACG	-0.212
CAACATGG	-0.243
ATACGTAT	0.257
AACGATTA	0.00114
ATCGGCGA	0.128
ATAGATTC	0.0333
GGGACGTA	-0.167
AAAAGTGT	-0.172
AATTACCA	0.139
CGCTTACA	-0.0381
GCCCATAA	-0.179
GAATCGAC	0.0878
CTAACCTA	-0.0678
GAGACTGA	0.0596
CTGTAGCC	-0.0564
GGGCAGGA	-0.269
AAGCTTCC	-0.00566
ATTATGTC	0.12
TGTAGCAA	0.0944
GCTCACCA	-0.239
AATGTGCA	-0.0178
TTGCGAAA	0.214
AAGTTTCC	0.17

Sequence	PBM E-score
AGTGAGCG	-0.0615
GTAAATAC	0.0725
AAGCAAGC	-0.0511
GGAGTGCA	-0.104
GAAAAGTA	0.139
AGCATGGG	-0.276
GAATGAGA	0.0212
GATCTGCC	0.00952
AAAGAATC	-0.108
CCGTTCCC	-0.0128
ACAGCAAT	0.00743
GAGCAGCA	0.0177
ATACGATC	0.0454
AGAGCTAG	-0.144
CTAGAGGA	-0.129
GTAGTCAC	-0.144
ACTTCGAT	-0.00459
CGCTACTC	0.0848
AAGGGGTG	-0.338
GCCTGCAA	-0.15
AGTGTAGC	-0.0232
CTTAAACC	-0.101
GACAATCA	0.0312
CCTGTTTA	-0.0933
CACGTGGC	-0.302

As a working copy, part of the list above.
Sequence	PBM E-score
CTAGAGGA	-0.129
GTAGTCAC	-0.144
ACTTCGAT	-0.00459

Additional entries follow:

Sequence	PBM E-score
CGAGTAAG	0.184
GGACCACC	-0.116
GGCCCACA	-0.0344
ACAAGTGG	-0.0153
CGATGAAC	0.0662
CCTCGCGA	-0.163
AGGCGGTC	-0.17
ATCCGTAC	0.195
ACATGCAA	-0.0621
CTTTCTTC	0.0894
CGATGTAG	-0.146
AACAAATT	0.201
CTAACGGA	0.284
GGAACATA	0.113
AGAAATAC	0.0513
AGGATACG	-0.0837
CTTCAAAC	0.0607
AGCTAGTA	0.0366
GCGATGAA	0.00439
AGTATTTA	0.0217
AGCTAGCT	-0.051
AACACGGT	0.00361
GAGGAGGC	-0.209
CTGAAACA	0.133
ATGGTAGA	-0.0295

Sequence	PBM E-score
ACAATGTG	-0.0436
GTTTGAAA	0.15
CGCTTACC	0.012
GCCACATA	-0.0485
ACATGCGT	-0.258
CCTTAACG	0.0316
AAATGCGG	0.156
CACCACCA	-0.253
GCGCATTA	0.0247
AGATCTTA	0.0316
GTTACTCA	0.139
CTTGCGCA	-0.115
CCGACGGC	0.106
CGGGATGC	-0.0572
CGTGATGC	-0.132
CGACGGAC	0.192
GATGTGTA	-0.059
CCATTGGA	-0.0545
CTTTGCGC	0.12
ATCAAGCG	0.0135
CATTTCGC	0.0218
AAAATGAA	-0.0319
ATCATCTG	0.114
ACCATTTG	0.0496
AAGATTTC	0.0599

Sequence	PBM E-score
TCAGACCA	-0.144
GAACTAAA	0.141
AGCTTGAA	0.0213
CGTGTCAA	-0.0632
CAGTCCCG	-0.0377
GCGATTAA	0.0949
AACTATAT	0.151
AGTAGCTG	-0.0665
CGTGCTAG	-0.273
GAGGCGTA	-0.0801
CGCTTCCA	-0.00448
GTTTGGAA	0.0444
ATTTTACC	0.3
GGACAGAC	0.098
CGCGACAC	-0.0572
ATAGGCGG	0.0325
CGAGGAAG	-0.0775
AGTGCGTA	-0.242
ACCACGTA	-0.176
GAAGGATC	-0.138
CAATACCG	-0.052
CGTGAGCA	0.0123
GACAGTGC	0.0291
ACTTCTCA	-0.0672
CCTTATGA	-0.00762

Individual results from above:
In PBM E-score, ATAGGCGG is listed with 0.0325
In PBM E-score, ACCACGTA is listed with -0.176
In PBM E-score, AGTAGCTG is listed with -0.0665
In PBM E-score, CGAGGAAG is listed with -0.0775
In PBM E-score, CAGTCCCG is listed with -0.0377

More records follow.

Sequence	PBM E-score
CCTTTCAG	-0.167
GGAGCGCA	-0.172
CAAGTTAC	0.113
GGAGATCC	0.0969
TTGCAAAA	0.125
AATGTCTA	0.0815
CACCGACC	-0.0437
CAAGCAAG	-0.0721
AGACCGCA	-0.065
ACTGCGAT	-0.0707
AATGTTAA	-0.0578
CATTTGGA	0.135
AGAGTTCA	-0.226
AACATATA	0.0587
AGGGCTGG	-0.147
CTAAGTTC	0.0413
CGGGGGGA	-0.373
GACCCGTC	-0.207
CATTTCCG	0.3
AAGGGTGC	-0.258
TAGTCTCA	-0.0568
ACCCCACA	-0.308
CGTTAGGC	-0.0339
CAAAAAGA	0.0638
ACCCAGAG	-0.26

Sequence	PBM E-score
CCCGCCAG	-0.0364
CTACGACA	-0.00594
CTCGGAGC	0.299
AACCTACT	-0.122
AGCTCCAA	-0.0525
CCTGGCAA	-0.158
GGCCTCGA	-0.106
ATTACCGC	0.174
GTCACTAA	-0.0609
AGGCGCGA	0.0224
GCTTCCCC	-0.337
ATCAACCC	0.0588
TCAAGGGA	0.123
AATTCACA	0.166
CAACGTTA	0.0552
GACGGGGC	-0.213
CTACACAC	-0.121
AATAAGCG	-0.146
CCCGTAGC	-0.208
